From the supplement of paper PMC8551327
This is one part of the list. Cut-off read from the data, not from the text of the source: active = 1.25 or more and inactive = the rest. Single values are uncertain, as repeats are few or missing.

Test system: Kcc2-LUC knock-in mouse primary cortical neurons (Kcc2 promoter reporter)
Test: Kcc2 promoter-driven luciferase activity relative to vehicle control (fold of vehicle (ratio)); higher = stronger Kcc2 promoter activation (Kcc2 expression enhancer)
Settings: 100 nM; 48 h

SMILES | Kcc2 promoter-driven luciferase activity
COc1cc(/C=C/C(=O)CC(=O)/C=C/c2ccc(O)c(OC)c2)ccc1O [Curcumin] | inactive: 1.09
O=C1C2=Nc3ccccc3C(O)N2c2ccccc21 (stereo not drawn) [12-hydroxy-12H-indolo[2,1-b]quinazolin-6-one] | inactive: 0.48
O=C(NCCCCCCCCNC(=O)c1cccc2ccccc12)c1cccc2ccccc12 | active: 1.29
CC12CCC(CC1)C(C)(C)O2 [Eucalyptol] | active: 1.48
CC(=O)CCCCn1c(=O)c2c(ncn2C)n(C)c1=O [Pentoxifylline] | inactive: 0.959
CSCC(CO)NC(=O)/C=C/c1c(C)[nH]c(=O)[nH]c1=O (stereo not drawn) | inactive: 0.97
COc1ccc(/C=C/c2cc(O)cc(O[C@@H]3O[C@H](CO)[C@@H](O)[C@H](O)[C@H]3O)c2)cc1O [Ponticin] | inactive: 0.91
CC(CN1CC(=O)NC(=O)C1)N1CC(=O)NC(=O)C1 (stereo not drawn) [Razoxane] | inactive: 0.24

Fetched by compound from above (2):
SMILES | Kcc2 promoter-driven luciferase activity
CC(CN1CC(=O)NC(=O)C1)N1CC(=O)NC(=O)C1 (stereo not drawn) [Razoxane] | inactive: 0.24
O=C1C2=Nc3ccccc3C(O)N2c2ccccc21 (stereo not drawn) [12-hydroxy-12H-indolo[2,1-b]quinazolin-6-one] | inactive: 0.48
